The values below come from patent US20090081314A1, “Glycemic Control, Diabetes Treatment, and Other Treatments with Acetyl Cholinesterase Inhibitors” (priority 2007, published 2009).

Read-outs that look alike come from different tables or passages of the source.

Where [1] appears, read: patient twenty, one month of donepezil 5 mg orally daily.

Take `COc1cc2c(cc1OC)C(=O)C(CC1CCN(Cc3ccccc3)CC1)C2` (centres unmarked) [donepezil]: the triglycerides entry reads like this: (patient five, after one month of donepezil 5 mg daily, before greater than 200) “less than 140 mg %”; (patient four, after one month of donepezil 5 mg daily, before greater than 400) “less than 180 mg %”; (patient three, one month of donepezil 5 mg daily, before 171) 129; (patient twenty-one, one month of donepezil 5 mg daily, before 162) 132; (patient twenty, one month of donepezil 5 mg orally daily, before 171) 93. Further, the HDL cholesterol result runs as follows: (patient five, after one month of donepezil 5 mg daily, before less than 40) “greater than 50”; (patient four, after one month of donepezil 5 mg daily, before 30) 50; (patient three, one month of donepezil 5 mg daily, before 43) 54; (patient twenty-one, one month of donepezil 5 mg daily, before 37) 48; (patient twenty, one month of donepezil 5 mg orally daily, before 37) 52. Moreover, the blood pressure reads like this: (patient four, after one month of donepezil 5 mg daily, before approx. 180/95) 130/80; under setting [1], 130/70. For the same compound, the fasting blood sugars result is, setting by setting: (patient four, during donepezil 5 mg daily, before greater than 140) “less than 100 mg %”; (patient three, donepezil 5 mg daily, before greater than 125) “less than 100 mg %”; (patient twenty-one, after donepezil 5 mg daily) “less than 110 mg %”; under setting [1], “less than 100 mg %”. In addition, the systolic blood pressure entry (patient three, one week of donepezil 5 mg daily, on losartan 80 mg) is given as “less than 120 mm Hg”.
